Laboratory results: article PMC3426539
No constants are given. Whether binding was seen depends on the method and setting. In cells and extracts the contact can be indirect. Some binding calls cover weakened binding; strength is not graded here.

By UniProt entry, the sequences of proteins in these tests, tags left out.
UniProt P27986: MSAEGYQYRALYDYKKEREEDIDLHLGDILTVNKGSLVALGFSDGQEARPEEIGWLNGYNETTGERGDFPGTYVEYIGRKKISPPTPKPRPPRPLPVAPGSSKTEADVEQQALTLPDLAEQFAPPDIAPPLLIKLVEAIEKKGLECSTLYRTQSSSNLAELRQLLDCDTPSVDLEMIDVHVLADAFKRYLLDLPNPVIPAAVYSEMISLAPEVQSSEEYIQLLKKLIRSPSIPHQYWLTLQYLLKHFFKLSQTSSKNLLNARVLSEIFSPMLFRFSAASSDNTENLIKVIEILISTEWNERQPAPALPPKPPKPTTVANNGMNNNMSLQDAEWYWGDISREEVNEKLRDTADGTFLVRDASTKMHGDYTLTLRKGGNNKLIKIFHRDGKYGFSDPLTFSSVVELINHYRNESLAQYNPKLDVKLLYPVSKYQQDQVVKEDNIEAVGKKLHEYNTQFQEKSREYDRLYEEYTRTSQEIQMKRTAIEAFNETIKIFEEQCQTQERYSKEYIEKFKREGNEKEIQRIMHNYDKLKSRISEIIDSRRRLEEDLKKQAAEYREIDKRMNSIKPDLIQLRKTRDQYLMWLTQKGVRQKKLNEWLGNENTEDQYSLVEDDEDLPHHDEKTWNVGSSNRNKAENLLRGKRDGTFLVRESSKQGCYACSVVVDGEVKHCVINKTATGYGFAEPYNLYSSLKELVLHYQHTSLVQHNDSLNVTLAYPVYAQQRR

Molecular target: p85α subunit of phosphatidylinositol 3-kinase (PI3K) (human (endogenous in WRO and A549)) (UniProt P27986)
Experiment: co-IP; lysates of WRO thyroid cancer cells and A549 lung cancer cells; which protein was precipitated is not told; protocol referred to earlier papers

B1: XB130 (protein, UniProt Q8N4X5 1-818)
chain: MERYKALEQLLTELDDFLKILDQENLSSTALVKKSCLAELLRLYTKSSSSDEEYIYMNKVTINKQQNAESQGKAPEEQGLLPNGEPSQHSSAPQKSLPDLPPPKMIPERKQLAIPKTESPEGYYEEAEPYDTSLNEDGEAVSSSYESYDEEDGSKGKSAPYQWPSPEAGIELMRDARICAFLWRKKWLGQWAKQLCVIKDNRLLCYKSSKDHSPQLDVNLLGSSVIHKEKQVRKKEHKLKITPMNADVIVLGLQSKDQAEQWLRVIQEVSGLPSEGASEGNQYTPDAQRFNCQKPDIAEKYLSASEYGSSVDGHPEVPETKDVKKKCSAGLKLSNLMNLGRKKSTSLEPVERSLETSSYLNVLVNSQWKSRWCSVRDNHLHFYQDRNRSKVAQQPLSLVGCEVVPDPSPDHLYSFRILHKGEELAKLEAKSSEEMGHWLGLLLSESGSKTDPEEFTYDYVDADRVSCIVSAAKNSLLLMQRKFSEPNTYIDGLPSQDRQEELYDDVDLSELTAAVEPTEEATPVADDPNERESDRVYLDLTPVKSFLHGPSSAQAQASSPTLSCLDNATEALPADSGPGPTPDEPCIKCPENLGEQQLESLEPEDPSLRITTVKIQTEQQRISFPPSCPDAVVATPPGASPPVKDRLRVTSAEIKLGKNRTEAEVKRYTEEKERLEKKKEEIRGHLAQLRKEKRELKETLLKCTDKEVLASLEQKLKEIDEECRGEESRRVDLELSIMEVKDNLKKAEAGPVTLGTTVDTTHLENVSPRPKAVTPASAPDCTPVNSATTLKNRPLSVVVTGKGTVLQKAKEWEKKGAS
In the case of B1, the binding is reported as “binds”.
